Drawing on publication PMC8888634, this text covers binding for two substances.

The chains behind the UniProt entries cited, without tags or fusion partners.
UniProt P10275: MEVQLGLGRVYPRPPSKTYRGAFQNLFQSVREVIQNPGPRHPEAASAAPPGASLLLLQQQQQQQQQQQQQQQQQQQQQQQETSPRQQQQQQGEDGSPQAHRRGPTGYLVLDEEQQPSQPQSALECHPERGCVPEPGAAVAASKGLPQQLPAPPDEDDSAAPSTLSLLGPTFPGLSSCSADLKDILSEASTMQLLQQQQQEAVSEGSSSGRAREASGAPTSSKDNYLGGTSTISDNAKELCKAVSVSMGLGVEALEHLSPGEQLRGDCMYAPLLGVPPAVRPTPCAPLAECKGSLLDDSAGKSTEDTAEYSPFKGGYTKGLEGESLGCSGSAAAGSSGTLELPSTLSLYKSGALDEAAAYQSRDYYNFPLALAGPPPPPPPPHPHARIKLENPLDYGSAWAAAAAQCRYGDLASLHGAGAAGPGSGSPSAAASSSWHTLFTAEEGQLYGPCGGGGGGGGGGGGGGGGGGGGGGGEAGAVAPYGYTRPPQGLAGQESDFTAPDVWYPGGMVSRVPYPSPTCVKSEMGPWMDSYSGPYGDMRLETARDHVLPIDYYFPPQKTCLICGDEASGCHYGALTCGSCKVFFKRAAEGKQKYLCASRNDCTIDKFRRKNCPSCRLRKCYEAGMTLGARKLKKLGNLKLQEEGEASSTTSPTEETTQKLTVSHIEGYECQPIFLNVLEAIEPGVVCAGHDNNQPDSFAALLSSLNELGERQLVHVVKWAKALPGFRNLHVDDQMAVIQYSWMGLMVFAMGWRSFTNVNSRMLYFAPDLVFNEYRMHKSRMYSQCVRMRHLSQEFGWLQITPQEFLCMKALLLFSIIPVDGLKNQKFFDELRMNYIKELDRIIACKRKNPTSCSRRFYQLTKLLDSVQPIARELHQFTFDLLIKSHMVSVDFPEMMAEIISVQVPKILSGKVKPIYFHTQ
UniProt P51532: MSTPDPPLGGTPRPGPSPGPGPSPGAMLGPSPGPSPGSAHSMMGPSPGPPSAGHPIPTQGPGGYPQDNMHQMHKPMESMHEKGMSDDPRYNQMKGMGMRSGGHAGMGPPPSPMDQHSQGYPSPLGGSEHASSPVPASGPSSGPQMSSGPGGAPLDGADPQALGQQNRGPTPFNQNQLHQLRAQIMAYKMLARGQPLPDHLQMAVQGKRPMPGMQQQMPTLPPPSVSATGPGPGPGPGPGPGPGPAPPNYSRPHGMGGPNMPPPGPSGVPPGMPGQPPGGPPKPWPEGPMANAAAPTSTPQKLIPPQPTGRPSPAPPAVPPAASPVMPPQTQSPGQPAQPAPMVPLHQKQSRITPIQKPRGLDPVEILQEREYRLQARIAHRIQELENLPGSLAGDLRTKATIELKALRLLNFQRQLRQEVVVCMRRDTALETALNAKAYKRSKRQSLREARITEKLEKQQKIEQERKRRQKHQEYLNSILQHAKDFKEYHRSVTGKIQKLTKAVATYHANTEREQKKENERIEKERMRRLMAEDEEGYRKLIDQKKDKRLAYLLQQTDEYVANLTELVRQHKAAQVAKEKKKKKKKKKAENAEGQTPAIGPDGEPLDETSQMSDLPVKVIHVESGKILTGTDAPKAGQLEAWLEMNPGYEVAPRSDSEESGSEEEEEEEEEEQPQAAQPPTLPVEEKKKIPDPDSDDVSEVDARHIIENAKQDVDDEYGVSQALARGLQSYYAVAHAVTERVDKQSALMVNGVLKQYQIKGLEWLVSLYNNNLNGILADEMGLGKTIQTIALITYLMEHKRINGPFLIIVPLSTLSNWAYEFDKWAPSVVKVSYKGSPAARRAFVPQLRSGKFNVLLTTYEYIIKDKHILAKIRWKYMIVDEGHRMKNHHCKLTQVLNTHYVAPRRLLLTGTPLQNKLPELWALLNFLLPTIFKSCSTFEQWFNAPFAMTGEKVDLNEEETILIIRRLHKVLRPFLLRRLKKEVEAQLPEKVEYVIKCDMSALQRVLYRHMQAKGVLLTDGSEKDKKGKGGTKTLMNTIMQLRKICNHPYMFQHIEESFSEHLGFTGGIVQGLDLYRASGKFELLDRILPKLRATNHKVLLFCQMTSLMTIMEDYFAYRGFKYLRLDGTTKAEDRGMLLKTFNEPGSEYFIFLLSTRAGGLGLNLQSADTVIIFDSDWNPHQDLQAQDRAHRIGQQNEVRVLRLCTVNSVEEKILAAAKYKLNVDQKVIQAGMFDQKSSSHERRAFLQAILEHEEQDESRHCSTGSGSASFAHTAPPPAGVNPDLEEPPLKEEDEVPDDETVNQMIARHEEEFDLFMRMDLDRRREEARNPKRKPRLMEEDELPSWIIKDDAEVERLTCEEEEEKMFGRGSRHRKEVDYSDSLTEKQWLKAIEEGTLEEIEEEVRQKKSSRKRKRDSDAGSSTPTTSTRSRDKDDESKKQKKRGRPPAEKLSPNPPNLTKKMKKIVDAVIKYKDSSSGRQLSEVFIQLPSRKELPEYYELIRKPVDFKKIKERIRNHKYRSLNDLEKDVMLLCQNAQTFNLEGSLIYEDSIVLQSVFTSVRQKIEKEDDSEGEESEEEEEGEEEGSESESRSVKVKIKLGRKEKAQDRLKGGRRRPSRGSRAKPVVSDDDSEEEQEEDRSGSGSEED

For the assay, the target named is T1, Flag-OTUD6A (ovarian tumor deubiquitinase 6A), introduced into VCaP and PC-3 cells (human) (UniProt Q7L8S5).
T1 sequence: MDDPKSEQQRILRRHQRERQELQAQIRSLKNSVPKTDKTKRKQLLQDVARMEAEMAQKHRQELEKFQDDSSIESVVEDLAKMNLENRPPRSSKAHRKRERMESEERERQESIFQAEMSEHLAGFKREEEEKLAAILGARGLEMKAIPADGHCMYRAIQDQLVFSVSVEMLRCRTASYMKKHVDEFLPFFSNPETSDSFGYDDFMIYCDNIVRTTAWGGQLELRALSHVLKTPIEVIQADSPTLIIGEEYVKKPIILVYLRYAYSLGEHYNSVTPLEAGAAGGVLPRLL
Briefly: affinity purification with mass spectrometry; Flag-OTUD6A introduced into VCaP and PC-3 cells; Flag-M2 IP; associated proteins analysed by Easy-nLC 1200 and Orbitrap Exploris 480.

These are yes or no findings as the source states them, for the method shown. In cells and extracts the contact can be indirect. These calls come from enrichment with a bait or labelling near it, and not all partners need be listed. Sequences can lack the tags named with a protein.

As for “AR (androgen receptor), endogenous in prostate cancer cells (from UniProt P10275 1-920)”, the binding result is “binds”.

For the substance “Brg1, the ATPase subunit of the SWI/SNF chromatin remodeling complex, endogenous in prostate cancer cells (from UniProt P51532 1-1647)”, the binding entry is reported as “binds”.
